From publication PMC13534476, “The Arabidopsis SPFH protein HIR2 modulates receptor signaling and plasma membrane organization” (The EMBO Journal, 2026)
These are yes or no findings as the source states them, for the method shown. Binding seen in cells or lysates may run through a third protein. These calls come from enrichment with a bait or labelling near it, and not all partners need be listed.

The chains behind the UniProt entries cited, without tags or fusion partners. Where a name states a change or a piece, a line headed by the entry shows the natural chain unless it says otherwise.
UniProt Q9SRH6: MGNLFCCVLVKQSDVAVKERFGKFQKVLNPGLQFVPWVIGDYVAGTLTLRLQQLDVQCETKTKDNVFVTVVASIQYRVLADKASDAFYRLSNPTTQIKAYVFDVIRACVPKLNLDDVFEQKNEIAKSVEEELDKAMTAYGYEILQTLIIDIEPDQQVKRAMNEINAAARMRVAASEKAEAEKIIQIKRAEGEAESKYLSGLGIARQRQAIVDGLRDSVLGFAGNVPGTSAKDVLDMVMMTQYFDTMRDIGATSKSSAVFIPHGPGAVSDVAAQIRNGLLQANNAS

Molecular target: T1, BIR2 (endogenous) (Arabidopsis thaliana (endogenous in Arabidopsis plants)) (UniProt Q9LSI9)
T1 sequence: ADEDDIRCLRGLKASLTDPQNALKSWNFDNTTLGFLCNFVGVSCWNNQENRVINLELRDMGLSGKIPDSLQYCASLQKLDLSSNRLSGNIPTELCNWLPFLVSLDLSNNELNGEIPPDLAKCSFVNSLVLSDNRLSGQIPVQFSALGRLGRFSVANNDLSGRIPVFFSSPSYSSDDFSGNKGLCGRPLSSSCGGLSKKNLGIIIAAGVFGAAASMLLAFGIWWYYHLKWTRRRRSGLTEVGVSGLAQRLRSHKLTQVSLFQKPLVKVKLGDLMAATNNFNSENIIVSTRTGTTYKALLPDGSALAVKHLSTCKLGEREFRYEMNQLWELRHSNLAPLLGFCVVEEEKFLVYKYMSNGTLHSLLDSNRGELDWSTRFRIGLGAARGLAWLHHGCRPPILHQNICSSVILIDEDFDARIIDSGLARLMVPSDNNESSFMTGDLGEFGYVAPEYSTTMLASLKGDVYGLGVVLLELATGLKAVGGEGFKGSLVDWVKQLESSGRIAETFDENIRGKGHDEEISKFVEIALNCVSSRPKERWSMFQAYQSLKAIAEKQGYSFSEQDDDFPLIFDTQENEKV
Assay: affinity purification with mass spectrometry; Co-IP of BIR2 (endogenous; wild type against BIR2 knockdown/knockout plants) or BIR3 from 2 g Arabidopsis leaf material, SDS-PAGE, in-gel trypsin digest, LC-MS/MS

Q: Which binding does the source give for “HIR2 (endogenous, found by mass spectrometry) (from UniProt Q9SRH6)” here?
A: The binding was “binds”.
